# Test results taken from the supplement of paper PMC10849652.
# Chains of the proteins cited; added tags and fusions are not shown. Lines headed by an entry give the natural chain unless they say otherwise; changes in a name come on top.
# UniProt Q9H7C9: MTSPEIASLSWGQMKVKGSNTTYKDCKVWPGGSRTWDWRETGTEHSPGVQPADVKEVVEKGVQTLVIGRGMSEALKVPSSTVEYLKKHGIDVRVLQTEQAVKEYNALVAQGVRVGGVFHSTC
# UniProt Q96QU6: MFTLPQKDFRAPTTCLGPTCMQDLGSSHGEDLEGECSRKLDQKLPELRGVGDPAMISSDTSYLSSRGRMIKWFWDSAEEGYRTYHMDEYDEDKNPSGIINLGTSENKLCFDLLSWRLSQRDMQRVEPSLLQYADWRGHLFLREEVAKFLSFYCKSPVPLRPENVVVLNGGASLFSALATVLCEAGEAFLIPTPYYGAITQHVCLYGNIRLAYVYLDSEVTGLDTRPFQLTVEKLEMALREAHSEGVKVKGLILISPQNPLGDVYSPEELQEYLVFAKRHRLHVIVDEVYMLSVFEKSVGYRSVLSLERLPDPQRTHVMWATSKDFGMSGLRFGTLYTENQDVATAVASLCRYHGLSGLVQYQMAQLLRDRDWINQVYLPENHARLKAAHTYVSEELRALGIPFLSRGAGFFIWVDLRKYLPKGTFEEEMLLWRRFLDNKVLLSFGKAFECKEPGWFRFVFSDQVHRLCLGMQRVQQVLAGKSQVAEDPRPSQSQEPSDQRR
# UniProt Q9NX38: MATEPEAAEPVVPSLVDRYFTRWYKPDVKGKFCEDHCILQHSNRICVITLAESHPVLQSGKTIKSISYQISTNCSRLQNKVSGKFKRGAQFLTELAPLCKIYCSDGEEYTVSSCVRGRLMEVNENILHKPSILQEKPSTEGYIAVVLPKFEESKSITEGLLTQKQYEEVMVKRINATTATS
# UniProt Q86V21: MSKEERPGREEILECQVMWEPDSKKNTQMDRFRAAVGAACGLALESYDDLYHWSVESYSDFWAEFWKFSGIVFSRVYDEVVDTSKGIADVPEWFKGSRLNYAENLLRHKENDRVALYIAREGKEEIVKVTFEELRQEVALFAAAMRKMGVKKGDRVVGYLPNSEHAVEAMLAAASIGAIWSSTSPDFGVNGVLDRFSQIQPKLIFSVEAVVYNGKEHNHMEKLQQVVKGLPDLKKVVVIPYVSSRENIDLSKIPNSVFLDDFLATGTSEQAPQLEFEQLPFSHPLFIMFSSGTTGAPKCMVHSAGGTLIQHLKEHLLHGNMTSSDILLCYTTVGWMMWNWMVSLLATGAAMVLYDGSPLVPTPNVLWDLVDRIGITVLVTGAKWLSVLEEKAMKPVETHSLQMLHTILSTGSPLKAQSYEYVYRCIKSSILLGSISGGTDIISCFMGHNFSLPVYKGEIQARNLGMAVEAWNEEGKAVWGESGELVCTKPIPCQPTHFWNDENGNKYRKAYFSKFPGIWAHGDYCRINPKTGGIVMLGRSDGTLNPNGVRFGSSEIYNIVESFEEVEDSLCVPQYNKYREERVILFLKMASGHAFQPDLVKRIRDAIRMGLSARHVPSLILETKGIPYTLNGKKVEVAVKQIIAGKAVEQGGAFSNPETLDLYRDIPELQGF
# UniProt O75027: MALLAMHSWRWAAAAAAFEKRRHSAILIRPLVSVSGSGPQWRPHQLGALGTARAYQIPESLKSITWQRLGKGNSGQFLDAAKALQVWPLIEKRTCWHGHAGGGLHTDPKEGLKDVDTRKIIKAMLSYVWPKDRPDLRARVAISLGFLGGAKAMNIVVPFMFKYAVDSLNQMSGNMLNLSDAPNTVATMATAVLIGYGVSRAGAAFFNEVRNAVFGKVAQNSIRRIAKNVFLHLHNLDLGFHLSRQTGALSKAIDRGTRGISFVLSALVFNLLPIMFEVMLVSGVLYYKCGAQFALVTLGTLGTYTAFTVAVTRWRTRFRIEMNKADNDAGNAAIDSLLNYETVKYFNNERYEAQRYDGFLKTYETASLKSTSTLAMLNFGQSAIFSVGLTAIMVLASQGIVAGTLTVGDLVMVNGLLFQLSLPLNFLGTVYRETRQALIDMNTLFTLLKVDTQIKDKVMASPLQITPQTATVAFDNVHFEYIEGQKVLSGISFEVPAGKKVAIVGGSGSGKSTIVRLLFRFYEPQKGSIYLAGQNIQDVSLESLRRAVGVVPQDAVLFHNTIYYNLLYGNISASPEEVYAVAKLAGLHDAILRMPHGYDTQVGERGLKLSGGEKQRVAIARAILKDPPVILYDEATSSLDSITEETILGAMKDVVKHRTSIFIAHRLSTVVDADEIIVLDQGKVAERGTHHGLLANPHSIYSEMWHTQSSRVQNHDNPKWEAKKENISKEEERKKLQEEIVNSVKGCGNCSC
# UniProt P49748: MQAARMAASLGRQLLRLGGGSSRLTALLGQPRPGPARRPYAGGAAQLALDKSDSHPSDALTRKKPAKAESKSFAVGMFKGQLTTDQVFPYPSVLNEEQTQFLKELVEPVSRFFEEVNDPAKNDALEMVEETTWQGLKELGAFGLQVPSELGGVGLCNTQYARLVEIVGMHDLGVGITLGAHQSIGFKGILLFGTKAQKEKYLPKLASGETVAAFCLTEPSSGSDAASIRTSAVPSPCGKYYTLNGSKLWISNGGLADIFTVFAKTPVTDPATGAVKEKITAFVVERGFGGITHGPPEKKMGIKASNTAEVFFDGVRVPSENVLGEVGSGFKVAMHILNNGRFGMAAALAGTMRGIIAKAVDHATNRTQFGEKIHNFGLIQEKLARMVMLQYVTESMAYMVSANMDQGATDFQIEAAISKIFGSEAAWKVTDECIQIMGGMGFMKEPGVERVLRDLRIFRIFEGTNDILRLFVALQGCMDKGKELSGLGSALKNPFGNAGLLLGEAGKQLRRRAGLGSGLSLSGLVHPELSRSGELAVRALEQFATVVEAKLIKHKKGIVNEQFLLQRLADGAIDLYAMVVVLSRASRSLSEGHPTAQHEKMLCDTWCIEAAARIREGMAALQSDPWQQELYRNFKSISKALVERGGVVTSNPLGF
# UniProt P28288: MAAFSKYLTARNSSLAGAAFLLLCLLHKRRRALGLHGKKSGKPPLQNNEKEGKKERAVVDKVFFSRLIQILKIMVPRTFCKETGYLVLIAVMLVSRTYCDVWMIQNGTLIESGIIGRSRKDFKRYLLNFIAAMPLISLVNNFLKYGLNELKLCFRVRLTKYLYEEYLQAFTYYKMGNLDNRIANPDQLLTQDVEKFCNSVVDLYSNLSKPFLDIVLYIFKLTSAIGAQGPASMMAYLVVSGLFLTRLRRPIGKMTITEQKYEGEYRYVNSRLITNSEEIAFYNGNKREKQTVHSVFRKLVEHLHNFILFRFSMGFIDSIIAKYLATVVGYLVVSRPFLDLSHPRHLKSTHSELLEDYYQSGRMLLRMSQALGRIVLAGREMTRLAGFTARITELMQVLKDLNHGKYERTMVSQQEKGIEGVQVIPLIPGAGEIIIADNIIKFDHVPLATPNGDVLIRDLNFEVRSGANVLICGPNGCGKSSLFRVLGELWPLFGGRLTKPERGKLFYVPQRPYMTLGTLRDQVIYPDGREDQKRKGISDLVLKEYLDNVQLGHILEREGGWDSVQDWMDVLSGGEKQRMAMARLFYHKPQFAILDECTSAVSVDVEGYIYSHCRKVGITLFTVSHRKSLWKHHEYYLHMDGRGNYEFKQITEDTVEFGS
# UniProt Q9H3P7: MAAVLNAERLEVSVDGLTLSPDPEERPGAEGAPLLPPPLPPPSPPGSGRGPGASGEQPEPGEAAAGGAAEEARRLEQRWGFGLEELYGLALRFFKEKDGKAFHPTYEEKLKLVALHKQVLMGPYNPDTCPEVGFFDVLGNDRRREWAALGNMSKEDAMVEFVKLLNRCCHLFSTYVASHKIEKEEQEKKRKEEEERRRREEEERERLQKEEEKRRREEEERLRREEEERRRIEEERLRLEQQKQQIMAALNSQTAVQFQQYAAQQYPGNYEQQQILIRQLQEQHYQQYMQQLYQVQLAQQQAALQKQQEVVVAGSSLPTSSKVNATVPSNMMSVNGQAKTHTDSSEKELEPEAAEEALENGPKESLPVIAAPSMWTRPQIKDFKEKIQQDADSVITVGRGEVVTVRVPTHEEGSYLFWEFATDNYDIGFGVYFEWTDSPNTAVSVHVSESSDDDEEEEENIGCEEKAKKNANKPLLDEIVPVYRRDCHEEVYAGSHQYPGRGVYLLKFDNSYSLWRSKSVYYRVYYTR
# UniProt P01023, whole entry, looked up: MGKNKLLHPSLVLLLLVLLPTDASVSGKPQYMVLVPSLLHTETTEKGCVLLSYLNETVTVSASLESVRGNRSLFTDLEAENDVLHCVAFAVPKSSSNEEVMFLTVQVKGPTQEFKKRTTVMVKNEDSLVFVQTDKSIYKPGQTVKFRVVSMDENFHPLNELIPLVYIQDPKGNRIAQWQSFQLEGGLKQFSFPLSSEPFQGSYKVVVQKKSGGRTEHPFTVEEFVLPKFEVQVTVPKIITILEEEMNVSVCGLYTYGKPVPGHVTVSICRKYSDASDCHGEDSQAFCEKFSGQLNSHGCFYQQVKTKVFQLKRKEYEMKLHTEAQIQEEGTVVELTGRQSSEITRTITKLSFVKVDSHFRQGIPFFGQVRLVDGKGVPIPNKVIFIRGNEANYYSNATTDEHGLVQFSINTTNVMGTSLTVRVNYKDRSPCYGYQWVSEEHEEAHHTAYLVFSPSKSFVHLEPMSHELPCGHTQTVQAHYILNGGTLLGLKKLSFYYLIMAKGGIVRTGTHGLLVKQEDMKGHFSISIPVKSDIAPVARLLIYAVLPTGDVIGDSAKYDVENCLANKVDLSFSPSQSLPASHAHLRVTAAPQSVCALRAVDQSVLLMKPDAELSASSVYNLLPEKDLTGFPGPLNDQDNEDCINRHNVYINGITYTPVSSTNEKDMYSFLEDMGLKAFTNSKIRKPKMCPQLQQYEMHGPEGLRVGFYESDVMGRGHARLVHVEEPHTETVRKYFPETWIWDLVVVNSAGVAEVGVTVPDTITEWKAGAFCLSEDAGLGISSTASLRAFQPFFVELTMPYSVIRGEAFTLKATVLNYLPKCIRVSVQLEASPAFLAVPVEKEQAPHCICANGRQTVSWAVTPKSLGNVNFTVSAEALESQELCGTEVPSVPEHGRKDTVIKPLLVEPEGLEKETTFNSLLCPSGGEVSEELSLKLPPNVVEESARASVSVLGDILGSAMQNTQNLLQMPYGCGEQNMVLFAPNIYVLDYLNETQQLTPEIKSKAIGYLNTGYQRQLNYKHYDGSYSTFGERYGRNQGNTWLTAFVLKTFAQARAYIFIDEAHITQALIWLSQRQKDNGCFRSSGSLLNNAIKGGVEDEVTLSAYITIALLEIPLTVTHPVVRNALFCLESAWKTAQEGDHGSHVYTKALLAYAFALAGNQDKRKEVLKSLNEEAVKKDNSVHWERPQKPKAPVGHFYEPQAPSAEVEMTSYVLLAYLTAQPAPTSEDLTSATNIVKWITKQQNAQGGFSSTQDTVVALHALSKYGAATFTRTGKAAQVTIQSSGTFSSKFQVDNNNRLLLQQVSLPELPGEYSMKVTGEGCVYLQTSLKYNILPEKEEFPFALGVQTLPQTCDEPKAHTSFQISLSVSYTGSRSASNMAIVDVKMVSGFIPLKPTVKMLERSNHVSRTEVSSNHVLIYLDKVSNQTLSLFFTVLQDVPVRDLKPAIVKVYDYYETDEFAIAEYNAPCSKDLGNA
# UniProt Q8IZP0: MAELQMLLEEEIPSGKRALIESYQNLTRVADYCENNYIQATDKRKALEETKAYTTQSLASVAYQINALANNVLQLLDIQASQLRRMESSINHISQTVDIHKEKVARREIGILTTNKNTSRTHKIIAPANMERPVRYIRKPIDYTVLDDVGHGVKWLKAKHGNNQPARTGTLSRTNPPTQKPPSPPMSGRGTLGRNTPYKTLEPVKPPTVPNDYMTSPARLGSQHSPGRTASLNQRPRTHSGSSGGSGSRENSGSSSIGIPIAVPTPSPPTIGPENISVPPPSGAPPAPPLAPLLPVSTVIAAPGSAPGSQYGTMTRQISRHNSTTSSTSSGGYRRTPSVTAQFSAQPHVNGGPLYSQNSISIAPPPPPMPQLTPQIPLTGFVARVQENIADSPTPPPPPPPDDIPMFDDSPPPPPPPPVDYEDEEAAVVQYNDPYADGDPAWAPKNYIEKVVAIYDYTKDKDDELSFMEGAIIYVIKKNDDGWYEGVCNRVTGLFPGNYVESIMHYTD
# UniProt Q6PD74: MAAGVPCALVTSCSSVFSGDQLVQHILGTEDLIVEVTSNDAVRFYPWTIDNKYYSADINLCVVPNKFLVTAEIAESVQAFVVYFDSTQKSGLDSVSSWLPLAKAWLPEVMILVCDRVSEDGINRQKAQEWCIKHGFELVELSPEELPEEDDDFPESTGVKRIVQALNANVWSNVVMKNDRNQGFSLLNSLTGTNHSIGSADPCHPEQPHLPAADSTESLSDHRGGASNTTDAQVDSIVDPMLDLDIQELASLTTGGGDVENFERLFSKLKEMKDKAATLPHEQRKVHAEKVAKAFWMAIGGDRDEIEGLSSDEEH
# This is one part of the list.
# Compound: CC(=O)c1cnc2ccc(-c3cc(Cl)c(O)c(Cl)c3)nc2c1N[C@H]1CC[C@H](CN(C)C)CC1
# Experiment: log2 fold change, soluble protein after heating vs DMSO (PISA); higher = thermal stabilisation; K562 lysate, 10 uM; active = over 0.2 and 3.5 SD of the protein, either way, in both replicates (recomputed)
# Procedure, shortened: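 K562 pellets were dounce-homogenised in PBS pH 7.4 containing 1 mM MgCl2, and the crude extract, at 1 mg/mL protein, was exposed to 10 μM compound for 30 min. Aliquots were heated for 3 min across 48°C-58°C, pooled, brought to 0.5% NP-40 at 4°C and spun at 21,000xg for 90 min, with the supernatant taken as soluble protein. TMTpro 16plex LC-MS/MS with equalised channel sums quantified that protein. Values are log-two fold changes in thermal stability relative to solvent controls, taken from duplicates.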
row,Target,log2 fold change
1,"AAK1, A0A096LP25",inactive: 0.385
2,AAMDC (UniProt Q9H7C9),inactive: -0.046
3,ACIN1 (UniProt E7EQT4),inactive: -0.033
4,ACCS (UniProt Q96QU6),inactive: 0.03
5,"A0A0B4J2A0, A0A0B4J2A0",inactive: 0.039
6,ABL1 isoform 2 (UniProt P00519),inactive: 0.077
7,ABITRAM (UniProt Q9NX38),inactive: 0.061
8,AACS (UniProt Q86V21),inactive: -0.015
9,ABCF2 isoform 2 (UniProt Q9UG63),inactive: 0.013
10,ACACA isoform 4 (UniProt Q13085),inactive: 0.021
11,ABCB7 isoform 2 (UniProt O75027),inactive: 0.062
12,ACADVL isoform 3 (UniProt P49748),inactive: 0.006
13,ABCC4 (UniProt O15439),inactive: -0.003
14,ABCD3 (UniProt P28288),inactive: -0.083
15,ABRAXAS2 (UniProt Q15018),inactive: 0.029
16,ACBD3 (UniProt Q9H3P7),inactive: -0.007
17,ACIN1 isoform 5 (UniProt Q9UKV3),inactive: -0.015
18,A2M (UniProt P01023),inactive: -0.011
19,AARS (UniProt P49588),inactive: 0.003
20,ABI1 isoform 9 (UniProt Q8IZP0),inactive: 0.023
21,AATF (UniProt Q9NY61),inactive: -0.045
22,AAGAB (UniProt Q6PD74),inactive: 0.017

# In another format: entries from further up
row	Target	log2 fold change
4	ACCS (UniProt Q96QU6)	inactive: 0.03
5	A0A0B4J2A0, A0A0B4J2A0	inactive: 0.039
6	ABL1 isoform 2 (UniProt P00519)	inactive: 0.077
7	ABITRAM (UniProt Q9NX38)	inactive: 0.061
